No constants are given. Whether binding was seen depends on the method and setting. In cells and extracts the contact can be indirect. Some binding calls cover weakened binding; strength is not graded here.
Molecular target: HNRNPK (human (endogenous in BGC823 and SGC7901)) (UniProt P61978)
Assay: co-IP; BGC823 and SGC7901 lysates precleared with Protein A/G PLUS-Agarose, immunoprecipitated for HNRNPK (control IgG); Western blot for β-catenin; also after circFAM73A overexpression (interaction promoted) or knockdown (interaction weakened)

binding: binds
Substance: β-catenin (from UniProt P35222 1-781)
